PubChem BioAssay AID1224830 – NIAID – 2016
Screen: 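Regulators of TLR4 signalling towards TNF-alpha in macrophage-like cells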 (primary screen). System: human THP-1 monocytic leukaemia cells, TNF dual-luciferase reporter clone, PMA-differentiated to macrophage-like cells. Reagent: siRNA pool against human genes, 50 nM. Timing: LPS for 4 h, given about 3 days after siRNA transfection. Challenge: bacterial LPS (TLR4 ligand), 10 ng/ml. Measurement: 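Ratio of firefly to renilla light, scaled to the plate median and expressed as a robust z-score per replicate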. Direction: TNF reporter robust z-score: higher = stronger TNF reporter response to LPS. Hit rule: 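Each well counts as active if its z-score is over 2.8 or under -1.5; controls are left without a call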.
The whole screen tested about 18,000 reagents; this is an unselected part. Over the whole deposit, about 2,900 (16%) are marked active. 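Calls are made per well; low scores hint the gene aids the LPS response, high scores that it dampens it.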 Repeated entries: four replicate wells of each siRNA pool.

| Gene | TNF reporter robust z-score | Outcome |
| --- | --- | --- |
| RFX2 (regulatory factor X2) | 0.15 | inactive |
| RFX2 (regulatory factor X2) | 0.99 | inactive |
| RFX2 (regulatory factor X2) | 0.5 | inactive |
| RFX2 (regulatory factor X2) | -0.07 | inactive |
| CDH15 (cadherin 15) | 0.08 | inactive |
| CDH15 (cadherin 15) | -0.01 | inactive |
| CDH15 (cadherin 15) | -0.46 | inactive |
| CDH15 (cadherin 15) | -0.36 | inactive |
| LEPROTL1 (leptin receptor overlapping transcript like 1) | -0.14 | inactive |
| LEPROTL1 (leptin receptor overlapping transcript like 1) | 0.04 | inactive |
| LEPROTL1 (leptin receptor overlapping transcript like 1) | 0.13 | inactive |
| LEPROTL1 (leptin receptor overlapping transcript like 1) | 0.65 | inactive |
| C17orf75 (chromosome 17 open reading frame 75) | -0.63 | inactive |
| C17orf75 (chromosome 17 open reading frame 75) | -0.86 | inactive |
| C17orf75 (chromosome 17 open reading frame 75) | -0.13 | inactive |
| FMR1 (fragile X messenger ribonucleoprotein 1) | -0.41 | inactive |
| FMR1 (fragile X messenger ribonucleoprotein 1) | 0.3 | inactive |
| FMR1 (fragile X messenger ribonucleoprotein 1) | -0.87 | inactive |
| FMR1 (fragile X messenger ribonucleoprotein 1) | 1.15 | inactive |
| ZNF84 (zinc finger protein 84) | 0.69 | inactive |
| ZNF84 (zinc finger protein 84) | 0.41 | inactive |
| ZNF84 (zinc finger protein 84) | 1.02 | inactive |
| ZNF84 (zinc finger protein 84) | 1.58 | inactive |
| OTUD6A (OTU deubiquitinase 6A) | -1.23 | inactive |
| OTUD6A (OTU deubiquitinase 6A) | -1.51 | active |
| OTUD6A (OTU deubiquitinase 6A) | -1.29 | inactive |
| OTUD6A (OTU deubiquitinase 6A) | -1.45 | inactive |
| FMO3 (flavin containing dimethylaniline monoxygenase 3) | -0.28 | inactive |
| FMO3 (flavin containing dimethylaniline monoxygenase 3) | 0.6 | inactive |
| FMO3 (flavin containing dimethylaniline monoxygenase 3) | -0.37 | inactive |
| FMO3 (flavin containing dimethylaniline monoxygenase 3) | 1.66 | inactive |
| PGRMC2 (progesterone receptor membrane component 2) | 1.46 | inactive |
| PGRMC2 (progesterone receptor membrane component 2) | 0.96 | inactive |
| PGRMC2 (progesterone receptor membrane component 2) | 0.33 | inactive |
| PGRMC2 (progesterone receptor membrane component 2) | -0.03 | inactive |
| ZNF441 (zinc finger protein 441) | -0.6 | inactive |
| ZNF441 (zinc finger protein 441) | -0.42 | inactive |
| ZNF441 (zinc finger protein 441) | -0.63 | inactive |
| ZNF441 (zinc finger protein 441) | 2.27 | inactive |

Continued, starting with the last 7 of the part before.
| Gene | TNF reporter robust z-score | Outcome |
| --- | --- | --- |
| PGRMC2 (progesterone receptor membrane component 2) | 0.96 | inactive |
| PGRMC2 (progesterone receptor membrane component 2) | 0.33 | inactive |
| PGRMC2 (progesterone receptor membrane component 2) | -0.03 | inactive |
| ZNF441 (zinc finger protein 441) | -0.6 | inactive |
| ZNF441 (zinc finger protein 441) | -0.42 | inactive |
| ZNF441 (zinc finger protein 441) | -0.63 | inactive |
| ZNF441 (zinc finger protein 441) | 2.27 | inactive |
| DCLK2 (doublecortin like kinase 2) | 1.77 | inactive |
| DCLK2 (doublecortin like kinase 2) | 0.21 | inactive |
| DCLK2 (doublecortin like kinase 2) | 0.08 | inactive |
| DCLK2 (doublecortin like kinase 2) | 1.3 | inactive |
| LCN15 (lipocalin 15) | -1.13 | inactive |
| LCN15 (lipocalin 15) | -1.69 | active |
| LCN15 (lipocalin 15) | -1.61 | active |
| LCN15 (lipocalin 15) | -1.11 | inactive |
| RPL10A (ribosomal protein L10a) | -0.92 | inactive |
| RPL10A (ribosomal protein L10a) | 0.42 | inactive |
| RPL10A (ribosomal protein L10a) | -0.49 | inactive |
| RPL10A (ribosomal protein L10a) | -0.08 | inactive |
| BCL11A (BCL11 transcription factor A) | -1.1 | inactive |
| BCL11A (BCL11 transcription factor A) | -0.86 | inactive |
| BCL11A (BCL11 transcription factor A) | -1.18 | inactive |
| BCL11A (BCL11 transcription factor A) | -0.96 | inactive |
| ARHGAP31 (Rho GTPase activating protein 31) | -0.69 | inactive |
| ARHGAP31 (Rho GTPase activating protein 31) | 0.72 | inactive |
| ARHGAP31 (Rho GTPase activating protein 31) | -0.05 | inactive |
| ARHGAP31 (Rho GTPase activating protein 31) | 0.35 | inactive |
| ERP27 (endoplasmic reticulum protein 27) | 1.22 | inactive |
| ERP27 (endoplasmic reticulum protein 27) | 1.81 | inactive |
| ERP27 (endoplasmic reticulum protein 27) | 2.64 | inactive |
| ERP27 (endoplasmic reticulum protein 27) | 2.27 | inactive |
| COX6C (cytochrome c oxidase subunit 6C) | -1.01 | inactive |
| COX6C (cytochrome c oxidase subunit 6C) | -0.51 | inactive |
| COX6C (cytochrome c oxidase subunit 6C) | -0.91 | inactive |
| COX6C (cytochrome c oxidase subunit 6C) | 0.31 | inactive |
| POR (cytochrome p450 oxidoreductase) | -1.43 | inactive |
| POR (cytochrome p450 oxidoreductase) | -1.54 | active |
| POR (cytochrome p450 oxidoreductase) | -1.38 | inactive |
| POR (cytochrome p450 oxidoreductase) | -1.22 | inactive |
| MAN1C1 (mannosidase alpha class 1C member 1) | -0.25 | inactive |
| MAN1C1 (mannosidase alpha class 1C member 1) | -0.77 | inactive |
| MAN1C1 (mannosidase alpha class 1C member 1) | 0.77 | inactive |
| MAN1C1 (mannosidase alpha class 1C member 1) | 0.22 | inactive |
| HARBI1 (harbinger transposase derived 1) | 0.28 | inactive |
| HARBI1 (harbinger transposase derived 1) | 1.29 | inactive |
| HARBI1 (harbinger transposase derived 1) | 0.65 | inactive |
| HARBI1 (harbinger transposase derived 1) | 1.33 | inactive |
| INTS10 (integrator complex subunit 10) | 0.99 | inactive |
| INTS10 (integrator complex subunit 10) | 1.36 | inactive |
| INTS10 (integrator complex subunit 10) | 0.17 | inactive |
| INTS10 (integrator complex subunit 10) | 1.09 | inactive |
| ZNF385D (zinc finger protein 385D) | – | inactive |
| SERPINF2 (serpin family F member 2) | -0.22 | inactive |
| SERPINF2 (serpin family F member 2) | -0.02 | inactive |
| SERPINF2 (serpin family F member 2) | 0.36 | inactive |
| SERPINF2 (serpin family F member 2) | 0.11 | inactive |
| NPY (neuropeptide Y) | -0.98 | inactive |
| NPY (neuropeptide Y) | -0.38 | inactive |
| NPY (neuropeptide Y) | -0.87 | inactive |
| NPY (neuropeptide Y) | -1.34 | inactive |
| LYG1 (lysozyme g1) | 0.05 | inactive |
| LYG1 (lysozyme g1) | 0.67 | inactive |
| LYG1 (lysozyme g1) | -0.07 | inactive |
| LYG1 (lysozyme g1) | -0.11 | inactive |
| KLF13 (KLF transcription factor 13) | -0.9 | inactive |
| KLF13 (KLF transcription factor 13) | -0.56 | inactive |
| KLF13 (KLF transcription factor 13) | -0.02 | inactive |
| KLF13 (KLF transcription factor 13) | 0.27 | inactive |
| NDUFS6 (NADH:ubiquinone oxidoreductase subunit S6) | 1.09 | inactive |
| NDUFS6 (NADH:ubiquinone oxidoreductase subunit S6) | 0.01 | inactive |
| NDUFS6 (NADH:ubiquinone oxidoreductase subunit S6) | 0.14 | inactive |
| NDUFS6 (NADH:ubiquinone oxidoreductase subunit S6) | 0.35 | inactive |
| ZNF286A (zinc finger protein 286A) | -1.32 | inactive |
| ZNF286A (zinc finger protein 286A) | -1.22 | inactive |
| ZNF286A (zinc finger protein 286A) | -1.48 | inactive |
| ZNF286A (zinc finger protein 286A) | -0.82 | inactive |
| FOSL2 (FOS like 2, AP-1 transcription factor subunit) | 0.71 | inactive |
| FOSL2 (FOS like 2, AP-1 transcription factor subunit) | 0.51 | inactive |
| FOSL2 (FOS like 2, AP-1 transcription factor subunit) | 0.43 | inactive |
| FOSL2 (FOS like 2, AP-1 transcription factor subunit) | 1.14 | inactive |
